This is a selection; strong and weak results do not stand in their true shares. Calls are pooled over several reports, among them a noisy single-well screen. This is one part of the list.
Assays:
Details in all cases: stereoisomer not certain
[1] = biological target: T1, UniProt E9PVX1
T1 sequence (whole entry): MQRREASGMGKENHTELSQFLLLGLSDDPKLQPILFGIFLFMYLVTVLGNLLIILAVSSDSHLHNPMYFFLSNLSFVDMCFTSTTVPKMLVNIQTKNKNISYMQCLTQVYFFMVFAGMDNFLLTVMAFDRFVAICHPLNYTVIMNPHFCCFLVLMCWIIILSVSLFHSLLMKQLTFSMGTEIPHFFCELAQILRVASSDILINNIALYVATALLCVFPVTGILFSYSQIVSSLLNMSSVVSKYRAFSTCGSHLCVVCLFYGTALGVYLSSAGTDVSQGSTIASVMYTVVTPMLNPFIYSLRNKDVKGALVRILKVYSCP
In short: (§1)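 Whether a receptor–molecule pair is responsive (active) rests on the original authors' judgment that its measured signal was statistically different from baseline. Pairs without that judgment are non-responsive (inactive). Sources used varied assay methods, commonly transient luciferase assays in mammalian cell lines.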

Protein sequences, listed by entry. Tags and fused reporters are not part of them. Chains listed by the source or under a name are the forms on record and can include a tag or linker.
UniProt D1MFA5, as listed by the source: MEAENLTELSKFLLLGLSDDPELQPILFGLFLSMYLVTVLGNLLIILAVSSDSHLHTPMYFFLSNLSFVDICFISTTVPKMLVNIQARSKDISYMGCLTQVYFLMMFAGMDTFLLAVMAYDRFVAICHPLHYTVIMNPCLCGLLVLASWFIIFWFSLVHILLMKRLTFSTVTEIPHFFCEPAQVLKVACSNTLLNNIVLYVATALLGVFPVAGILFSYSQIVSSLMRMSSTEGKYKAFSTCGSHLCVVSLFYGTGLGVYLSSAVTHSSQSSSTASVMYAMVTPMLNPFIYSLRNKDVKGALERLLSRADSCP

[2] = biological target: T2, UniProt E9PZ66
T2 sequence (whole entry): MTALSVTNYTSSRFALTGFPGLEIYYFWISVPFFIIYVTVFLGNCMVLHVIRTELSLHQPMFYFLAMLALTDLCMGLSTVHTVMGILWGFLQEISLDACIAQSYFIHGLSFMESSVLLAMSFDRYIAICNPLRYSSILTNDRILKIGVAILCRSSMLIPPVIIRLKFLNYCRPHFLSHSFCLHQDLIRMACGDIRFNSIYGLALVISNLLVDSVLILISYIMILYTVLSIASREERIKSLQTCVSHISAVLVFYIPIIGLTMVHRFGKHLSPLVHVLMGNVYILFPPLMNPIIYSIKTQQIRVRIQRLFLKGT
In short: as §1

[3] = biological target: T3, UniProt E9Q4X7
T3 sequence (whole entry): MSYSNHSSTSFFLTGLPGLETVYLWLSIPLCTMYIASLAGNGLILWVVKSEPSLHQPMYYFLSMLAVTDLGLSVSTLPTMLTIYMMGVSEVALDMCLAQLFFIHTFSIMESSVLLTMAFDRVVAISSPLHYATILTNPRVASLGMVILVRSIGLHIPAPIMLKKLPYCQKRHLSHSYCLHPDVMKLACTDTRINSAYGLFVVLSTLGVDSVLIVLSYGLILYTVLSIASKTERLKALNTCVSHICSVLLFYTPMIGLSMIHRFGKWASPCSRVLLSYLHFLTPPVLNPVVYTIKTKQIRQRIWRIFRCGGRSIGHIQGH
In short: as §1

[4] = biological target: T4, UniProt E9Q546
T4 sequence (whole entry): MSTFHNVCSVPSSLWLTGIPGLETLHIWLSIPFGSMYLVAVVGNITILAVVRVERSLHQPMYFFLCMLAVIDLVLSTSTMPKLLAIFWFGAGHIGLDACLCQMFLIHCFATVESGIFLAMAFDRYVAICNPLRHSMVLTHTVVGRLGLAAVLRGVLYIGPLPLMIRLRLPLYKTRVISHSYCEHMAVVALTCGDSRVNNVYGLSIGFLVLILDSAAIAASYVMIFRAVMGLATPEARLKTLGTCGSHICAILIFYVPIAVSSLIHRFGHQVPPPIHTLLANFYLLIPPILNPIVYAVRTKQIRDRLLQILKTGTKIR
In short: as §1

[5] = biological target: UniProt D1MFA5
In short: as §1

[6] = biological target: T5, UniProt E9PX47
T5 sequence (whole entry): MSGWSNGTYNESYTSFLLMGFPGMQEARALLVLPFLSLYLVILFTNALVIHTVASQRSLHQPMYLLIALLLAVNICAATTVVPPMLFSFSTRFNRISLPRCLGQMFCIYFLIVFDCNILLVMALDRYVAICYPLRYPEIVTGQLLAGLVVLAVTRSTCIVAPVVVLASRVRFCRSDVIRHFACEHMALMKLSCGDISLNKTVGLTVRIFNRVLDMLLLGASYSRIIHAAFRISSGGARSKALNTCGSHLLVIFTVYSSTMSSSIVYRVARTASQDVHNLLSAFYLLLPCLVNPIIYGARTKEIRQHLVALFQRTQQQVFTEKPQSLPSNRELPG
In short: as §1

[7] = biological target: T6, UniProt E9PXN3
T6 sequence (whole entry): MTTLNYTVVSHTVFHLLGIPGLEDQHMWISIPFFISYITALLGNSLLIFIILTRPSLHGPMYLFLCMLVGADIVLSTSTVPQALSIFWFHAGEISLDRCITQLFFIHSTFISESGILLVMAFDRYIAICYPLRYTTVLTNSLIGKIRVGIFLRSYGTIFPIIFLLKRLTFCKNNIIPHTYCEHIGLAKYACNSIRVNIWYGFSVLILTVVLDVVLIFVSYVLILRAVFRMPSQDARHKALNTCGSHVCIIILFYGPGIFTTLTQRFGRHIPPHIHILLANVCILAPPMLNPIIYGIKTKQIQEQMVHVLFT
In short: as §1
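Also: active if original authors judged signal statistically different from baseline.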

Compound	odorant receptor agonist call [1]	odorant receptor agonist call [2]	odorant receptor agonist call [3]	odorant receptor agonist call [4]	odorant receptor agonist call [5]	odorant receptor agonist call [6]	odorant receptor agonist call [7]
C=CC(C)(O)CCC=C(C)C (stereo unspecified)	inactive	inactive	inactive	inactive	–	–	–
COC(=O)c1ccccc1O	inactive	inactive	inactive	inactive	–	–	–
CC12C=CCC1C1CCC3=CC(=O)CCC3(C)C1CC2 (stereo unspecified)	–	–	–	–	active	–	–
O=C1CCCCC1	–	–	–	inactive	–	–	–
CC1COCc2cc3c(cc21)C(C)(C)C(C)C3(C)C (stereo unspecified)	inactive	inactive	active	inactive	–	–	–
CC(C)CC(=O)O	inactive	active	inactive	inactive	–	inactive	inactive
CC(C)C=O	inactive	inactive	inactive	inactive	–	–	–
CC(C)(O)CCCC1=CCC(C=O)CC1 (stereo unspecified)	inactive	inactive	inactive	inactive	–	–	–
CCCCO	inactive	inactive	inactive	inactive	–	–	–
CCCCCCC=O	inactive	inactive	inactive	inactive	–	inactive	inactive
CCCCCCCCCCC=O	–	–	–	–	–	–	inactive
c1cnccn1	inactive	inactive	inactive	inactive	–	–	–
COc1ccccc1O	inactive	inactive	inactive	inactive	–	–	–
CC(=O)OC1CC2CCC1(C)C2(C)C (stereo unspecified)	inactive	inactive	inactive	inactive	–	–	–

Just odorant receptor agonist call [7] and odorant receptor agonist call [4], for 2 of the compounds above:
Compound | odorant receptor agonist call [7] | odorant receptor agonist call [4]
c1cnccn1 | – | inactive
COc1ccccc1O | – | inactive
